# The whole screen tested about 360,000 compounds, of which about 610 (0.17%) were called active. The inconclusive results got no clear call from the source; some entries with a clear call stand among them for comparison. Rule as the data show it: active = inhibition above about 30%; inconclusive = no clear call, values can overlap the other calls; inactive = below that.
# System: Botulinum neurotoxin type A light chain protease (Clostridium botulinum A str. ATCC 3502)
# Assay: blockers of BoNT/A LC substrate cleavage – biochemical, flow cytometry, MLPCN library, primary screen (AID 588499); also: plate controls were buffer without enzyme for full effect and enzyme alone for no effect
# Conditions: multiplex microsphere protease substrate cleavage, at 10 µM, hits give high values
row,Compound,inhibition
1,CCCC1CC(C#N)N(N(C)C)C1=C(C#N)C#N (configuration not stated),inconclusive: 3%
2,CCn1c(CSc2nc(C)cc(C)n2)nnc1SCC(=O)Nc1ccccc1,inconclusive: 0.7%
3,O=c1c(Cl)c2oc3ccccc3nc-2c2ccccc12,active: 47.2%
4,O=C(c1ccc(Oc2ccccc2)cc1)c1nc2c(n1O)CCCC2,inconclusive: 0.4%
5,COc1ccc(C2C(C(=O)O)CC(=O)N2C2CCCCC2)cc1 (configuration not stated),inconclusive: 2.2%
6,CC12CN(C(=O)c3ccccc3Br)CC(C)(CN(C(=O)c3ccccc3Br)C1)C2=O,inconclusive: -7.7%
7,CC(=O)CC(C)(C)S(=O)(=O)c1ccc(NC(C)=O)cc1,inconclusive: -1.8%
8,Cc1ccc(C2CC(=O)Nc3cc4c(cc32)OCCO4)s1 (configuration not stated),inconclusive: -2.4%
9,Cc1cc(C)nc(N2CCC(C(=O)Nc3nnc(C)s3)CC2)n1,inconclusive: 2.2%
10,CCc1noc(C)c1C(=O)NCCc1ccc(OC)c(OC)c1,inconclusive: -3.3%
11,NC(=S)COc1ccccc1,inconclusive: -4.7%
12,CCCCn1c(SCC(=O)NCc2ccco2)nc2c1c(=O)n(C)c(=O)n2C,inactive: -0.4%
13,CCOC(=O)Cc1csc(NC(=O)c2ccc(S(=O)(=O)N3CCCCC3)cc2)n1,inconclusive: 1.7%
14,Cc1ccc(-n2c(-c3ccccc3)n[nH]c2=S)c(C)c1,inconclusive: -4.7%
15,CCn1cc(C=C2C(=O)c3ccccc3C2=O)c2ccccc21,active: 69.7%
16,CCOc1ccc(NC(=O)N[C@@H](CCSC)C(=O)OC)cc1,inconclusive: 3.1%
17,CC(=O)N1CCc2cc(S(=O)(=O)NC(Cc3ccccc3)C(=O)NC3CCCCCC3)ccc21 (configuration not stated),inconclusive: -3.9%
18,CC(C)c1ccc(-c2nn(-c3ccccc3)cc2C(=O)NCC2CCCO2)cc1 (configuration not stated),inactive: -2.5%
19,COc1ccc2cc(C(c3nnnn3CCc3ccccc3)N3CCC(O)CC3)c(=O)[nH]c2c1 (configuration not stated),active: 30.5%
20,O=C(CN1CCCC1)Nc1ccccc1Cl,inconclusive: -1.9%
21,COc1ccc(/C=N/NC2=NCCCCC2)c(OC)c1,inactive: -0.3%
22,COc1cc(/C=C/C(=O)/C=C(O)/C=C/c2ccc(O)c(OC)c2)ccc1O,active: 32.1%
23,COc1ccc(N2CCN(C(=O)CCNS(=O)(=O)c3ccc4c(c3)CCC(=O)N4)CC2)cc1,inconclusive: 1.9%

# Looked up above:
# O=c1c(Cl)c2oc3ccccc3nc-2c2ccccc12 | inhibition: active: 47.2%
# COc1ccc(C2C(C(=O)O)CC(=O)N2C2CCCCC2)cc1 (configuration not stated) | inhibition: inconclusive: 2.2%
# Cc1ccc(-n2c(-c3ccccc3)n[nH]c2=S)c(C)c1 | inhibition: inconclusive: -4.7%
# COc1ccc(/C=N/NC2=NCCCCC2)c(OC)c1 | inhibition: inactive: -0.3%

# Next compounds.

row,Compound,inhibition
1,CCOc1ccccc1N(CC(=O)NC(C)(C)C)C(=O)c1ccc(CN2CCOCC2)o1,inconclusive: 2.8%
2,CCOc1ccccc1CNc1nc2ccccc2n1C,inconclusive: -0.1%
3,CCOC(=O)[C@]12CCCC=C1N(Cc1ccco1)C(=O)[C@H](CC(=O)NCc1ccccc1)C2,inactive: 0.1%
4,CCOC(=S)SCC(=O)Nc1ncc(C)s1,inactive: 0%
5,CCOC(=O)N1CCN(CC(=O)Nc2c(C(=O)OC)[nH]c3cccc(Cl)c23)CC1,inconclusive: 1.9%
6,CCn1c(COc2ccc3c(c2)CCCC3)nnc1SCC(=O)Nc1nccs1,inactive: -0.4%
7,Clc1ccc(-c2cn(-c3nc4ccccc4s3)nn2)cc1,inactive: 0.4%
8,COc1cccc2cc(C(=O)C3=C(O)C(=O)N(CCN(C)C)C3c3ccc(Cl)cc3)oc12 (configuration not stated),inconclusive: -4.1%
9,COc1ccc(Cl)cc1C(=O)NNC(=O)c1nn(C)c(=O)c2ccccc12,inconclusive: 0.3%
10,COCCNC(=O)CCCCCn1c(=S)[nH]c2ccccc2c1=O,inconclusive: -0.2%
11,C/C(CC(=O)Nc1ccccn1)=N\NC(=O)Cc1cccc2ccccc12,inconclusive: -1.2%
12,CC1CCCC(C)N1C(=S)NCc1ccco1 (configuration not stated),inconclusive: -5.5%
13,O=C(NCc1ccc(F)cc1)C(c1cccs1)N(C(=O)c1csnn1)C1CC1 (configuration not stated),inconclusive: 22.5%
14,CCC1S/C(=N/N=C/c2ccco2)N(Cc2ccccc2C)C1=O (configuration not stated),inconclusive: 36%
15,Cc1cc(C(=O)O)c(C)n1Cc1ccncc1,inconclusive: -27.7%
16,Cc1cc2ccccc2n1CCNC(=O)COc1ccccc1,active: 84.4%
17,CCCc1nc2oc3cc(OC)ccc3c(=O)c2c(=O)n1CCc1ccccc1,inconclusive: 9.6%
18,O=C(Nc1ccc2ccccc2c1)c1cc(F)c(F)cc1Cl,inconclusive: -3.6%
19,O=c1[nH]c(Nc2ccc(F)cc2)cc2ccccc12,inconclusive: 2%
20,CCN(CC)c1ccc(C=Nc2cccc(S(=O)(=O)N3CCOCC3)c2)c(O)c1,active: 51%
21,C=C(C)Cn1cnc2c(oc3nc4c(cc32)CCCC4)c1=O,inconclusive: 13.9%
22,Cc1nc(-c2ccc(C(F)(F)F)cc2)sc1C(=O)NN,inconclusive: 19%
23,CC(=O)Nc1ccc(/C=N/Nc2nc3ccccc3s2)cc1,inactive: -0.2%

row,Compound,inhibition
1,CN1C(=O)C(CC(=O)NCCc2ccccc2)N(NC(=O)c2ccc(Cl)cc2)C1=S (configuration not stated),inconclusive: 0.8%
2,Cc1ccc(S(=O)(=O)N2CCN(c3ccc([N+](=O)[O-])cn3)CC2)cc1,inconclusive: 3.9%
3,CCc1ccc(-c2nc(CN3CCC(C(=O)NCc4ccc(F)cc4)CC3)c(C)o2)cc1,inconclusive: -3.9%
4,Cc1ccc2c(c1)N(CCC(=O)NCc1ccco1)C(=O)CO2,inactive: -1.7%
5,CCc1ccc(CCC(=O)Nc2nnc(C)s2)o1,inconclusive: 0.8%
6,COc1cccc(/C=C2/C(=O)NN(c3ccc(C)c(C)c3)C2=O)c1,inconclusive: -2.9%
7,CCn1c(=O)cc(SCC(=O)N2CCC(C)CC2)c2ccccc21,inconclusive: 4.8%
8,O=C(c1cc(Cl)nc2ccccc12)N1CCN(S(=O)(=O)c2cccc(C(F)(F)F)c2)CC1,inactive: 0.3%
9,CC1(C)CC(=O)C(C2(O)C(=O)N(Cc3ccccc3)c3ccccc32)CO1 (configuration not stated),inconclusive: -0.7%
10,O=C1OCCC1S(=O)(=O)c1ccc2ccccc2c1 (configuration not stated),inconclusive: -210%
11,CCOC(=O)c1ccc(Oc2cc(C)nc(Cl)n2)cc1,inconclusive: -29.1%
12,Cc1cc(C(=O)N2CCN(c3ncccc3C#N)CC2)no1,inconclusive: -8.8%
13,CC(=O)N1CCN(C(=O)CCNC(=O)c2ccc(Br)cc2)CC1,inconclusive: -261%
14,O=C(Nc1ccc(Cl)cc1)Nc1ccc(C(=O)N2CCOCC2)cc1,inconclusive: -6.5%
15,CCc1ccc(NC(=O)CSc2nccn(-c3ccc4c(c3)OCCO4)c2=O)cc1,inconclusive: 5.5%
16,CCN1/C(=C/c2ccc3cccc(C)c3[n+]2CC)Sc2ccccc21,active: 79.4%
17,Cc1cccn2c(=O)nc(SCC(=O)NCc3ccccc3)nc12,inconclusive: -4.9%
18,CCOC(=O)C1C(=O)CC(=O)C(C(=O)OCC)C1c1ccc(O)cc1 (configuration not stated),inactive: -0.3%
19,O=C1CN(C(=O)c2ccccc2F)c2ccccc2N1,inconclusive: -2.1%
20,CN1CCN(c2ccc([N+](=O)[O-])c(Sc3ccccn3)c2)CC1,inconclusive: -10%
21,CC(C)CN(Cc1cc(=O)oc2cc3c(cc12)CCCC3)CC(C)C,inconclusive: 20.7%
22,O=C(Nc1ccc(OC(F)F)cc1)Nc1cccc(C(F)(F)F)c1,inconclusive: 1.3%
23,C=CCNC(=O)c1cc2c(=O)n3ccccc3nc2s1,inactive: 0.5%

row,Compound,inhibition
1,O=C(O)C(c1ccccc1)N1C(=O)/C(=C\c2ccc(-c3ccc(Br)cc3)o2)SC1=S (configuration not stated),active: 65.2%
2,COC(=O)/C(C#N)=C/c1ccc(N2CCOCC2)c([N+](=O)[O-])c1,inconclusive: -0.4%
3,CCC(=NCc1cc(OC)cc(OC)c1)c1c(O)n(C)c(=O)n(C)c1=O,inconclusive: -1.5%
4,COc1cc(Cl)c(S(=O)(=O)NCCCN2CCOCC2)cc1Cl,inconclusive: -1.4%
5,CCCN(CCC)CC(O)COc1ccccc1C(=O)Nc1ccccc1 (configuration not stated),inconclusive: -2.4%
6,O=C(NCCCc1ccccc1)c1cccc(NC(=O)C2CCCC2)c1,inactive: -0.2%
7,CC1=C(C(=O)N2CCOCC2)CC(CC(=O)NCCc2ccccn2)C(=O)N1CCC1=CCCCC1 (configuration not stated),inactive: -0.4%
8,COc1ccc(CCN(C)C(=O)CSc2nccn2C)cc1OC,inconclusive: 1.8%
9,CC(=O)Nc1ccc(S(=O)(=O)N(Cc2ccco2)CC2CCCO2)cc1 (configuration not stated),inactive: 0.1%
10,CCOC(=O)c1[nH]c(C)c(C(=O)OC)c1C,inconclusive: -42.7%
11,CCC(=O)Nc1nnc(/C=C/c2ccc(OC)cc2)s1,inconclusive: 7.4%
12,COc1ccc(-c2nn(-c3ccccc3)cc2/C=C2/SC(=S)N(Cc3ccco3)C2=O)c(C)c1,active: 29.5%
13,O=C(CNc1ccccc1)N/N=C/c1ccc2c(c1)OCCO2,inactive: -0.2%
14,COc1ccc(C(=O)NCCS(=O)(=O)NCc2ccc(F)cc2)cc1,inconclusive: -33.8%
15,CCOc1ccc(N=Cc2c(O)n(-c3cc(C)cc(C)c3)c(=O)[nH]c2=O)cc1,inconclusive: 2.5%
16,COCc1cc(C)nc(Nc2ccccc2C)c1C#N,inconclusive: 3.5%
17,COc1cc(C)c(Cl)c(C)c1S(=O)(=O)NC1CC(C)(C)NC(C)(C)C1,inactive: 0%
18,CCn1cc(C(=O)NCc2ccco2)c(=O)c2cc(F)c(N3CCN(C(=O)c4ccco4)CC3)cc21,inactive: -0.1%
19,CC(C)C(NC(=O)c1cccs1)C(=O)NC1=NCCS1 (configuration not stated),inconclusive: 2.3%
20,COc1cc(/C=C2/SC(=S)N(Cc3ccccc3)C2=O)cc(OC)c1O,active: 39.9%
21,CC(=O)Nc1nnc(S(N)(=O)=O)s1,inactive: 0%
22,CSCc1ccc(C(=O)OCC(=O)NC2CCCC2)o1,inactive: -0.4%
23,Cc1c(C(=O)N(Cc2ccccc2)Cc2cccnc2)cnn1-c1ccc(F)cc1,inconclusive: -25.1%

# Reformatted: entries from further up.
row | Compound | inhibition
14 | COc1ccc(C(=O)NCCS(=O)(=O)NCc2ccc(F)cc2)cc1 | inconclusive: -33.8%
23 | Cc1c(C(=O)N(Cc2ccccc2)Cc2cccnc2)cnn1-c1ccc(F)cc1 | inconclusive: -25.1%

# From PubChem BioAssay AID588499 (NMMLSC, 2011)
